Assay: Cmax after IV injection of 1 mg DSP in rabbit
Format: in vivo

- Cmax of DSP for rabbit relative to human: approximately 75 times
SMILES: C[C@@H]1C[C@H]2[C@@H]3CCC4=CC(=O)C=C[C@]4(C)[C@@]3(F)[C@@H](O)C[C@]2(C)[C@@]1(O)C(=O)COP(=O)(O)O [DSP, Dexamethasone sodium phosphate]
